Source: PubChem BioAssay AID587 (National Center for Advancing Translational Sciences (NCATS), 2007)
Out of some 59,000 compounds screened, about 35 (0.06%) were called active. This list was built around the results that the source calls inconclusive (neither active nor inactive); the mix of calls is not that of the screen. Cut-off read from the data, not from the text of the source: active = max dye-equivalent concentration above about 10 nM; inconclusive = between about 1.1 nM and that limit; inactive = weaker than that.

Experiment: qHTS Assay for Spectroscopic Profiling in Texas Red Spectral Region
Settings: Compound fluorescence, Texas Red channel, 547/618 nm; active compounds read high
In short: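 Compound fluorescence was read after 15 min at room temperature in 100 mM Tris, pH 8.0, using 547 nm excitation and 618 nm emission across a concentration series. It was expressed as Texas Red dye-equivalent concentration from an on-plate standard curve.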

SMILES | max dye-equivalent concentration
Cn1c(-c2ccc(C(=O)c3ccccc3)s2)nc2ccccc21 | inactive
O=C(Cn1nnc(-c2ccccc2F)n1)Nc1ccc(S(=O)(=O)NC2CCCC2)cc1 | inconclusive: 1.1 nM
CC(C)Oc1snc(Cl)c1C(N)=O | inconclusive: 1.3 nM
CC1=C(C(=O)Nc2ccc(C)cc2)C(c2ccc(C)o2)C2=C(CC(C)(C)CC2=O)N1 (configuration not stated) | inconclusive: 1.5 nM
N=C(N)SCCc1cnc[nH]1 | inconclusive: 1.1 nM
COc1ccc(OCCOC(=O)c2cccs2)cc1 | inconclusive: 1.8 nM
COc1ccc(NC(C)=O)cc1NC(=O)CN1CCN(C2c3ccccc3-c3ccccc32)CC1 | inconclusive: 1.1 nM
c1csc(CNc2ccnc(-c3ccoc3)n2)c1 | inactive
COc1cccc(OC)c1C(=O)Nc1ccc(NC(=O)c2ccco2)cc1 | inconclusive: 1.1 nM
Brc1ccc(-c2nnc3sc(CN4CCC5(CC4)OCCO5)cn23)cc1 | inactive
COc1ccc(C(c2nnnn2Cc2ccccc2)N2CCN(C(=O)c3ccco3)CC2)cc1 (configuration not stated) | inconclusive: 1.1 nM
C=CCn1c(SCC(=O)NCc2ccco2)nnc1-c1ccc2ccccc2n1 | inconclusive: 1.3 nM
CC(=O)NNC(=O)N1Cc2ccccc2Oc2ccc(Cl)cc21 | inactive
CCn1c(SCC(=O)Nc2c(C)n(C)n(-c3ccccc3)c2=O)nnc1-c1cccc(C)c1 | inconclusive: 1.4 nM
CCCCOc1ccc(C(=O)NCc2ccccn2)cc1 | inconclusive: 1.3 nM
COCCn1c(=S)[nH]c2ccc(N(C)C)cc2c1=O | inconclusive: 1.2 nM
COC(=O)c1ccccc1NC(=O)C(C)NS(=O)(=O)c1ccc(OC)cc1 (configuration not stated) | inconclusive: 1.5 nM
CC(C)=CCCC(C)NC(=O)NC1CCCCC1 (configuration not stated) | inconclusive: 1.1 nM
Cc1noc(C)c1C(=O)N1CCC2(CCCN(Cc3nccs3)C2)CC1 | inactive

SMILES | max dye-equivalent concentration
O=C(COC(=O)c1cnccn1)Nc1ccc(Cl)cc1 | inactive
N#CCCSCc1ccc(C(=O)O)o1 | inconclusive: 2.1 nM
N[C@@H](Cc1cnc[nH]1)C(=O)O | inconclusive: 1.2 nM
CSCCC(NC(=O)COc1ccccc1)C(=O)N1CCN(c2ccccc2F)CC1 (configuration not stated) | inconclusive: 1.4 nM
Cc1ccccc1C1CC(=O)NC2=C1C(=O)CCC2 (configuration not stated) | inconclusive: 1.4 nM
Cc1noc(/C=C/N(C)C)c1S(=O)(=O)N1CCCC(C(=O)NCc2ccc(Cl)cc2)C1 (configuration not stated) | inconclusive: 1.2 nM
Cc1ccccc1NC(=O)C1CCCN1C(=O)NC1CCCCC1 (configuration not stated) | inconclusive: 1.2 nM
Cc1cc(C)c(C)c(S(=O)(=O)NCc2ccco2)c1C | inconclusive: 1.1 nM
COc1ccc(S(=O)(=O)Nc2ccc(Cl)cn2)c(C)c1C | inconclusive: 2.5 nM
Cc1cc(C)n2cc(CSc3nnnn3-c3ccccc3)nc2n1 | inconclusive: 2.1 nM
Cc1ccc(S(=O)(=O)CC2CSc3nnc(C)c(=O)n32)cc1 (configuration not stated) | inconclusive: 1.2 nM
CCC1C(=O)N=C(SCC(=O)Nc2ccc(C(=O)OC)cc2)NC1=O (configuration not stated) | inconclusive: 1.3 nM
Cn1nnnc1Sc1nc(-c2cccnc2)nc2ccccc12 | inconclusive: 1.3 nM
c1nc(NCCN2CCOCC2)c2c3c(sc2n1)CCCCC3 | inconclusive: 1.6 nM
Cc1cc(NC(=O)CSc2nccn2-c2ccc(Cl)cc2)no1 | inconclusive: 1.1 nM
O=C(CSc1ncnc2c1oc1ccccc12)Nc1ccc2c(c1)OCCO2 | inconclusive: 1.5 nM
Cc1ccc(NC(=O)CSc2nnc(COc3ccc(C#N)cc3)n2-c2ccccc2)cc1C | inconclusive: 1.2 nM
Cc1c(NCc2nc3ccccc3[nH]2)c(=O)n(-c2ccccc2)n1C | inconclusive: 2.1 nM
COC(=O)C1=C(N)Oc2cc(C)n(Cc3cccnc3)c(=O)c2C1c1ccc(OC)c(OC)c1 (configuration not stated) | inconclusive: 1.6 nM

SMILES | max dye-equivalent concentration
Fc1ccc(C2CC(c3ccccc3)n3ncnc3N2)cc1 (configuration not stated) | inconclusive: 2 nM
O=c1c2ccccc2nc2c3ccccc3c3nncn3n12 | inconclusive: 2 nM
COc1ccc(-c2nc3ccccc3c(=O)n2CCN2CCOCC2)cc1 | inconclusive: 1.1 nM
COC(=O)C(C#N)c1nc2ccccc2nc1N1CCCC1 (configuration not stated) | inactive
CC1=C(C(=O)OCC(C)C)C23C(=O)c4ccccc4C2(O1)OC(N)=C3C#N (configuration not stated) | inconclusive: 1.3 nM
O=C(NC1CCCCC1)/C(=N\O)c1ccccn1 | inconclusive: 1.2 nM
COc1ccc(CNC2CCCCC2)cc1 | inconclusive: 1.2 nM
CC1CCN(c2nc(-c3ccccc3)c(C#N)c(=O)[nH]2)CC1 | inconclusive: 1.3 nM
CCOC(=O)c1[nH]c2ccc(F)cc2c1NC(=O)CN1CCc2cc(OC)c(OC)cc2C1 | inconclusive: 1.2 nM
COC(=O)C1CCN(C(=O)COC(=O)Cc2c[nH]c3ccccc23)CC1 | inconclusive: 2.4 nM
COc1ccc(NC(=O)C2CCN(Cc3cnn(-c4ccccc4)c3-n3cccc3)CC2)cc1OC | inconclusive: 2.9 nM
CC(=O)Nc1nc2ccccc2n1Cc1ccccc1C | inconclusive: 1.1 nM
CSCC[C@H](NC(=O)C1CCN(S(=O)(=O)c2ccc(C)cc2)CC1)C(=O)NCc1ccco1 | inconclusive: 1.3 nM
COc1cccc(-c2nc(NCc3ccccc3OC)c3ccccc3n2)c1 | inconclusive: 1.8 nM
COCCNC(=O)c1ccc2c(c1)NC(=O)CS2 | inconclusive: 2.1 nM
Cc1nc(SCC(=O)N2CCN(C(=O)c3ccco3)CC2)c2c(C)c(C)sc2n1 | inconclusive: 1.1 nM
CCCS(=O)(=O)Nc1c(C(=O)O)[nH]c2ccccc12 | inconclusive: 1.2 nM
COc1ccc(OC)c(C(c2nnnn2C2CCCC2)N2CCc3ccccc3C2)c1 (configuration not stated) | inconclusive: 1.5 nM
COc1ccc(S(=O)(=O)N2CCCCC2)cc1Br | inconclusive: 1.2 nM

An excerpt from above in order of molar mass, smallest number first.
SMILES | max dye-equivalent concentration
O=C(NC1CCCCC1)/C(=N\O)c1ccccn1 | inconclusive: 1.2 nM
O=c1c2ccccc2nc2c3ccccc3c3nncn3n12 | inconclusive: 2 nM
COc1ccc(S(=O)(=O)N2CCCCC2)cc1Br | inconclusive: 1.2 nM
